In test [1] the target is monomeric human BCMA (human) (UniProt Q02223). Briefly: SPR. For orientation: In SPR one partner is held on a chip, and binding of the other changes the refractive index at the surface.
Test [2] addresses human BCMA on cells (HEK cells expressing human BCMA; BCMA+ cell lines; patient plasma cells) (human) (UniProt Q02223). Briefly: flow cytometry, BCMA-expressing cells. (In general: In flow cytometry, cells or beads pass a laser one at a time.)

Sequences of proteins named here, by UniProt entry; tags and fusion partners are left off. A change or cut given only in a name is not applied to a line headed by its entry.
UniProt Q02223: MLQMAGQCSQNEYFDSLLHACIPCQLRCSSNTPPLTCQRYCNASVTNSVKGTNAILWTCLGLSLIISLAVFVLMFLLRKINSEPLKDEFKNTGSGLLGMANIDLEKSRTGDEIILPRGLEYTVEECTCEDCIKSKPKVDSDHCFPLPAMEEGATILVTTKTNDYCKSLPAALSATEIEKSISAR

No constants are given. Whether binding was seen depends on the method and setting. Some entries that bind do so weakly or less than the wild type.

B1: BCMB177 (antibody, human IgG4 S228P, lambda, F234A L235A, V domains shown)
VH: QLQLQESGPGLVKPSETLSLTCTVSGGSISSSSYFWGWIRQPPGKGLEWIGSIYYSGRTYYNPSLKSRVTISVDTSKNQFSLKLSSVTAADTAVYYCARHDGATAGLFDYWGQGTLVTVSS
VL: SYVLTQPPSVSVAPGQTARITCGGNNIGSKSVHWYQQPPGQAPVVVVYDDSDRPSGIPERFSGSNSGNTATLTISRVEAGDEAVYYCQVWDSSSDHVVFGGGTKLTVLG
Consider B1, for which the binding result in test [1] and in test [2] was “binds” throughout.

B2: BCMB176 (antibody, human IgG4 S228P, lambda, F234A L235A, V domains shown)
VH: QLQLQESGPGLVKPSETLSLTCTVSGGSISSSSYFWGWIRQPPGKGLEWIGSIYYSGITYYNPSLKSRVTISVDTSKNQFSLKLSSVTAADTAVYYCARHDGATAGLFDYWGQGTLVTVSS
VL: SYVLTQPPSVSVAPGQTARITCGGNNIGSKSVHWYQQPPGQAPVVVVYDDSDRPSGIPERFSGSNSGNTATLTISRVEAGDEAVYYCQVWDSSSDHVVFGGGTKLTVLG
Consider B2, for which, in test [1], the binding entry is reported as “binds”.

B3: BCMB128 (antibody, human IgG4 S228P, lambda, F234A L235A, V domains shown)
VH: QLQLQESGPGLVKPSETLSLTCTVSGGSISSGSYFWGWIRQPPGKGLEWIGSIYYSGITYYNPSLKSRVTISVDTSKNQFSLKLSSVTAADTAVYYCARHDGATAGLFDYWGQGTLVTVSS
VL: SYVLTQPPSVSVAPGQTARITCGGNNIGSKSVHWYQQPPGQAPVVVVYDDSDRPSGIPERFSGSNSGNTATLTISRVEAGDEAVYYCQVWDSSSDHVVFGGGTKLTVLG
Regarding B3, in test [1], the binding result is on record as “binds”.

The values above are taken from patent US20170051068A1.
